32 targets from the supplement of paper PMC10849652 can be followed below.

Amino acid sequences for entries named in this document (tags omitted). A change or cut given only in a name is not applied to a line headed by its entry.
UniProt O43432, whole entry, looked up: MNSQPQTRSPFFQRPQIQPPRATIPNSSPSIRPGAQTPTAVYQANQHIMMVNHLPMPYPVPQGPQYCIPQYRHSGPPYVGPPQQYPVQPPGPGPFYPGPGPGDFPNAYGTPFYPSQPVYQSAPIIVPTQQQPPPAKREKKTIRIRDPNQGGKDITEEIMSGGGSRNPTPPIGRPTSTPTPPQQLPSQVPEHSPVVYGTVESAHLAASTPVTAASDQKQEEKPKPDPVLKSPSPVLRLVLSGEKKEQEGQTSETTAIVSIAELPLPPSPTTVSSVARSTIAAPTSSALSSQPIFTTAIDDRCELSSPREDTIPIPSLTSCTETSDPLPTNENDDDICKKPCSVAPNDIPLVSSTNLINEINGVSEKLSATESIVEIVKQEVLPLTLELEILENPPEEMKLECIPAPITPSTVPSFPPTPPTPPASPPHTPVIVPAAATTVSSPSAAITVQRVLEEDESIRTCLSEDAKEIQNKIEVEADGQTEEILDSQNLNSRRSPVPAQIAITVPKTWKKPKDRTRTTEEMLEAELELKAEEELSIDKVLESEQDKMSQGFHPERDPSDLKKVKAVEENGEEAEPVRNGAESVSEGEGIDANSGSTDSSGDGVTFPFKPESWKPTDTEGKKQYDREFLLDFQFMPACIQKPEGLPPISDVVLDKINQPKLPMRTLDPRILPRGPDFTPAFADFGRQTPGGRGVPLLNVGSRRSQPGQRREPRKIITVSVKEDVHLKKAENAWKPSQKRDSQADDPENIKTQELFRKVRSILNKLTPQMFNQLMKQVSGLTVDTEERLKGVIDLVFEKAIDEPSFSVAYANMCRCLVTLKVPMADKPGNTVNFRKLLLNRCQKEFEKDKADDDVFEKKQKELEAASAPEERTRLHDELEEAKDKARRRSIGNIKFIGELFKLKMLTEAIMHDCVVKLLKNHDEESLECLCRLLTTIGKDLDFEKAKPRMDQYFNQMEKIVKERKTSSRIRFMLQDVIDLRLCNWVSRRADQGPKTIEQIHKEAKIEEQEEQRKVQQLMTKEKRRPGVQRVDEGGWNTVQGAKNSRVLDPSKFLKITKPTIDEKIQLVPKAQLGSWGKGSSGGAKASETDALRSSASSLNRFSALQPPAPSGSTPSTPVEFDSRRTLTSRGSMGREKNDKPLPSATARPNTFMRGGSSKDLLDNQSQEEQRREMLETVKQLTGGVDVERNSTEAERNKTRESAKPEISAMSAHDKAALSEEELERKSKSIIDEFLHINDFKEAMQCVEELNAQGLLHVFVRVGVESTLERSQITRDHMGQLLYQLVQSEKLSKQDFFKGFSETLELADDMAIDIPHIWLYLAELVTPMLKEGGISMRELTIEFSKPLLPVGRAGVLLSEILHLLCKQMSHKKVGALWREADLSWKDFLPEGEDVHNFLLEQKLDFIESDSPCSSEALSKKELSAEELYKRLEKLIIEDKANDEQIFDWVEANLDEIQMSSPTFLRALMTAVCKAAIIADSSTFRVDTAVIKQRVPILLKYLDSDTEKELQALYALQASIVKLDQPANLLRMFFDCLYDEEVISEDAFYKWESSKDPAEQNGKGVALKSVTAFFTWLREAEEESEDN
UniProt Q8N6R0: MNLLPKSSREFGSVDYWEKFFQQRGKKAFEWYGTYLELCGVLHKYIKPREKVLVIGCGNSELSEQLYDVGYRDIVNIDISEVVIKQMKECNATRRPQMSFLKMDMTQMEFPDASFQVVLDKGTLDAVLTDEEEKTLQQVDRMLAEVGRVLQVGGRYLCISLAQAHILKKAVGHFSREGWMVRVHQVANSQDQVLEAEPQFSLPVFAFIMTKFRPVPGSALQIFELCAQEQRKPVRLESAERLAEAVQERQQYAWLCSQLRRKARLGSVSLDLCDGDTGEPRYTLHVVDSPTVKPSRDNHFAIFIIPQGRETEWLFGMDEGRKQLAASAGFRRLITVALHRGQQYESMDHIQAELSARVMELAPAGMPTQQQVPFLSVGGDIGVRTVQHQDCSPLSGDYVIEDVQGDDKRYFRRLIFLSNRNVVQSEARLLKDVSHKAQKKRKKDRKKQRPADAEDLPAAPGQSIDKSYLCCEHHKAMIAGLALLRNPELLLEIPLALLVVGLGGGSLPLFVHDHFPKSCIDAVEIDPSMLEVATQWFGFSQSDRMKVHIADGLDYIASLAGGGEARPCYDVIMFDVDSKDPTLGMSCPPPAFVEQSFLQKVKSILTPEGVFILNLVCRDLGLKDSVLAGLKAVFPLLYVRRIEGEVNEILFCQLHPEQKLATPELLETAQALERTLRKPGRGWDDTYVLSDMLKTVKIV
UniProt Q9BQI3, whole entry, looked up: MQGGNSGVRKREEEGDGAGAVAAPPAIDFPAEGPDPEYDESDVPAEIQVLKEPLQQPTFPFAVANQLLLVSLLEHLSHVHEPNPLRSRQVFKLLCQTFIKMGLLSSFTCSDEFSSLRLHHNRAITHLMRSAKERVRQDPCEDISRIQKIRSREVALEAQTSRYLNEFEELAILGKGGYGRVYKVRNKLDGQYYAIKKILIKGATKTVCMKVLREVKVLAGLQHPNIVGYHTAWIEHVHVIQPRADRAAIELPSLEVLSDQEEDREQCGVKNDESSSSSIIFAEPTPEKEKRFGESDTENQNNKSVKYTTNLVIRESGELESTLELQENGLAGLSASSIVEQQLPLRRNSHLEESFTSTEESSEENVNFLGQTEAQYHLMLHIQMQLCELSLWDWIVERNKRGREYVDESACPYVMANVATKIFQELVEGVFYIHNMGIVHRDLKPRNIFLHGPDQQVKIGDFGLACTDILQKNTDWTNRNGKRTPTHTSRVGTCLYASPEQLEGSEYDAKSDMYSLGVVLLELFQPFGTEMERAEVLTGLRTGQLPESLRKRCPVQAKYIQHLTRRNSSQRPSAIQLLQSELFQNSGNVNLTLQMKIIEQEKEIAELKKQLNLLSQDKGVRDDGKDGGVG
UniProt P19525: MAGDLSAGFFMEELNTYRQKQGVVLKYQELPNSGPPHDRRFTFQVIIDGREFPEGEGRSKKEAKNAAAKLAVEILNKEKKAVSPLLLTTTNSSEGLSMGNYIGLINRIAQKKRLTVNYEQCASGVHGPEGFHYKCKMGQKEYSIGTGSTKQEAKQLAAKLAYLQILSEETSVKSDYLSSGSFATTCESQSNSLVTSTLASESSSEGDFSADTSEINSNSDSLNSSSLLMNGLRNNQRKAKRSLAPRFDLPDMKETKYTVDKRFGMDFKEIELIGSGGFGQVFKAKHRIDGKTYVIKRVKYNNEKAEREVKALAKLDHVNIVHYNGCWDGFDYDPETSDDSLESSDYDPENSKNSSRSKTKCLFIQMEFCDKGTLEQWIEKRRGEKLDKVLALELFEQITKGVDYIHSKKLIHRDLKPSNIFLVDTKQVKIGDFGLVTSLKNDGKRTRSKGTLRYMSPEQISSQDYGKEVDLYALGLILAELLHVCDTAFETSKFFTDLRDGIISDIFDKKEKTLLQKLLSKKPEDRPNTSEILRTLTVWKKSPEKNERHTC
UniProt Q9BW60: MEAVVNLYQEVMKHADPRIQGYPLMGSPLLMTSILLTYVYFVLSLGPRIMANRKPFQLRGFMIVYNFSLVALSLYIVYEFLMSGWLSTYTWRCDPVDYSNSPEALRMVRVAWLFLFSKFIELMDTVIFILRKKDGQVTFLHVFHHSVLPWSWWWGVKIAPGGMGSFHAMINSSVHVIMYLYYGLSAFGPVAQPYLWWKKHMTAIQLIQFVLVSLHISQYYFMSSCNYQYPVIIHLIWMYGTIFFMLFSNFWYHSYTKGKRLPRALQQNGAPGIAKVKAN
UniProt P18146, whole entry, looked up: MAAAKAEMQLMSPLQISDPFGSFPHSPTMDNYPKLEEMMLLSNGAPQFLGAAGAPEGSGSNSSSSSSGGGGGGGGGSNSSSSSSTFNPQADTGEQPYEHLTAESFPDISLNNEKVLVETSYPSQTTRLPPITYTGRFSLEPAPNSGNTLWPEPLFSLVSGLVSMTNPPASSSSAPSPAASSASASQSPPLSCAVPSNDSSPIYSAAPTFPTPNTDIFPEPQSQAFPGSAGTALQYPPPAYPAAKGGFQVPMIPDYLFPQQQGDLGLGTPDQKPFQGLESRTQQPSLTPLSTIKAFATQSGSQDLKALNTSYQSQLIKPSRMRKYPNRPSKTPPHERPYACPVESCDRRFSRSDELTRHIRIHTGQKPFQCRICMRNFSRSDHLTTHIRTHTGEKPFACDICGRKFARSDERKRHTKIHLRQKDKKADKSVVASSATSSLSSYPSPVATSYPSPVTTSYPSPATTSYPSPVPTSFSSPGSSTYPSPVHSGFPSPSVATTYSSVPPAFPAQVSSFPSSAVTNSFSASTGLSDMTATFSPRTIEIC
UniProt P26641, whole entry, looked up: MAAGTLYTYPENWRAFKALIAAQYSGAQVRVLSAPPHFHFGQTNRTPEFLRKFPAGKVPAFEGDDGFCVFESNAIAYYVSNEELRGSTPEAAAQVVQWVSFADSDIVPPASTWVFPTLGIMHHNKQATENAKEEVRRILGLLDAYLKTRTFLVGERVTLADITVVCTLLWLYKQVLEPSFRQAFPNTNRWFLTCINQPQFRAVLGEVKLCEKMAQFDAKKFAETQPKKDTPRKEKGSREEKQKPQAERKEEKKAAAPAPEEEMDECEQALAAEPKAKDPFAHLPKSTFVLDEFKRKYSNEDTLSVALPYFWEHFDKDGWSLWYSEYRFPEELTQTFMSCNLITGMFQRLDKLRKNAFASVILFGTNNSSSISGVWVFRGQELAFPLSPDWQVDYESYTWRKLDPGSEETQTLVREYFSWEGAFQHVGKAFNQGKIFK
UniProt Q12805: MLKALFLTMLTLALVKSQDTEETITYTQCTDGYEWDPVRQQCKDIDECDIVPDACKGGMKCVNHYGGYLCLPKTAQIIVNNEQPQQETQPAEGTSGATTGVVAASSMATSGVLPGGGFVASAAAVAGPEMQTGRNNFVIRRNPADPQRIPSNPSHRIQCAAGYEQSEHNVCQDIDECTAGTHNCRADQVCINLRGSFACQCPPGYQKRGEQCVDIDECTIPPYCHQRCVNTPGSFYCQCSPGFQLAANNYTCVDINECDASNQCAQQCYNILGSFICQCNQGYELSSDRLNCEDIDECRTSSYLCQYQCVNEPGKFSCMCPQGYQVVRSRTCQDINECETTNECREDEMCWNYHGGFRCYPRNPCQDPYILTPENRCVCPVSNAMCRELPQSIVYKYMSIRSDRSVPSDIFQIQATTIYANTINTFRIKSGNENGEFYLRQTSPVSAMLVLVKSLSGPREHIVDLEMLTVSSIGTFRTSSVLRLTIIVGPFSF
UniProt A1L3X0: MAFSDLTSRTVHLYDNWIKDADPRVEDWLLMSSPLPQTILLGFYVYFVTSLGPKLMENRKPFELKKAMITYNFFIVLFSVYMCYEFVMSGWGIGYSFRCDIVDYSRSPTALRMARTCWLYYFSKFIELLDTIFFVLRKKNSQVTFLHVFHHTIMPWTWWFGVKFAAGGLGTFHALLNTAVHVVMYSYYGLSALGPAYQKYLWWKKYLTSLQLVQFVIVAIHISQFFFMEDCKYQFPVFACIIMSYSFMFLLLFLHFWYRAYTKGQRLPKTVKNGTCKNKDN
UniProt Q9NRA8: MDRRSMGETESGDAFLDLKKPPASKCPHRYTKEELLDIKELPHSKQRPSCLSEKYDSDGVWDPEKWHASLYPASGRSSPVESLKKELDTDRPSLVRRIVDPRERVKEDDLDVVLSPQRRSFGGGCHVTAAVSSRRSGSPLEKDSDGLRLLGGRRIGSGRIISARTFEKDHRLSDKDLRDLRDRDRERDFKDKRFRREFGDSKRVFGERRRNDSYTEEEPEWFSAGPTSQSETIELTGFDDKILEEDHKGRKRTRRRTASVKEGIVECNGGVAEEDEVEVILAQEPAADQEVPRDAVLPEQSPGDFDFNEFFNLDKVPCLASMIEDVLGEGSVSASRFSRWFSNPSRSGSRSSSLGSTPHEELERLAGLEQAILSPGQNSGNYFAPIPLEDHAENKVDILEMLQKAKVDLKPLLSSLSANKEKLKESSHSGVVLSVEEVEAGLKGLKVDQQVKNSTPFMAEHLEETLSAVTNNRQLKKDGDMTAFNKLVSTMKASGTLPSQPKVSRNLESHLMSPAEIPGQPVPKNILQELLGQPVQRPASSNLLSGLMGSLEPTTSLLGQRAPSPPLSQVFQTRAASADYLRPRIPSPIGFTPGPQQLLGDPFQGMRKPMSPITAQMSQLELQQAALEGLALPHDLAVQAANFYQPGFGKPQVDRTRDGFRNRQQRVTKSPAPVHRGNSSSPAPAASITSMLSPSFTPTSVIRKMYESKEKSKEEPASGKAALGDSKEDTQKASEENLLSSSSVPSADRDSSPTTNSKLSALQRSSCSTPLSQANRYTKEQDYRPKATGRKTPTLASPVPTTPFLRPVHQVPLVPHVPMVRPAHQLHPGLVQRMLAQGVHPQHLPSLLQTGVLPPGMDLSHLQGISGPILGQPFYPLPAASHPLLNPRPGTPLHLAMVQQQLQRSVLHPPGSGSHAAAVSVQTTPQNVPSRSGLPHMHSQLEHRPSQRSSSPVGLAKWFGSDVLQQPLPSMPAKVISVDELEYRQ

The other results are listed elsewhere or left out.

Compound in the first assay: C1=CC=C2C(=C1)C3=NNC4=CC=CC(=C43)C2=O
Kind of assay: log2 fold change, soluble protein after heating vs DMSO (PISA); higher = thermal stabilisation; K562 cells, 10 uM, 30 min; active = over 0.2 and 3.5 SD of the protein, either way, in both replicates (recomputed). The method in brief: (§1)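 Soluble protein was quantified by TMTpro 16plex LC-MS/MS after channel sums were equalised. It was obtained as the supernatant after 21,000xg for 90 min from pooled aliquots of K562 cells (2×10^6 cells/mL, 10 μM compound, 30 min) heated for 3 min across 48°C-58°C and extracted in PBS with 0.5% NP-40 at 4°C. Thermal stability values are relative to control samples and come from duplicates. They are given as log2 fold changes.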
As to EIF4G3 isoform 3 (UniProt O43432), the log2 fold change was inactive: 0.071.

On to EIF3J isoform 2 (UniProt O75822), for which the log2 fold change was inactive: -0.138.

For the target EEF1AKNMT (UniProt Q8N6R0), the log2 fold change is inactive: 0.058.

EIF2AK1 (UniProt Q9BQI3): the log2 fold change is inactive: 0.021.

For the target EIF2B4 (UniProt Q9UI10), the log2 fold change is inactive: -0.069.

EIF3G (UniProt K7ER90): the log2 fold change is inactive: -0.009.

Regarding EED, A0A5F9ZI63, the log2 fold change is inactive: -0.033.

For EOGT (UniProt Q5NDL2), the log2 fold change is inactive: 0.032.

As for EIF2AK2 (UniProt P19525), the log2 fold change is inactive: 0.159.

ELOVL1 (UniProt Q9BW60): the log2 fold change was inactive: -0.11.

Consider EIF2S3 (UniProt P41091), for which the log2 fold change was inactive: 0.015.

With EGR1 (UniProt P18146), the log2 fold change is inactive: -0.474.

Regarding ELL (UniProt P55199), the log2 fold change is inactive: -0.177.

As to EEF1G isoform 2 (UniProt P26641), the log2 fold change is inactive: 0.012.

For the target ELAC1 (UniProt Q9H777), the log2 fold change is inactive: -0.021.

For EIF4E2 (UniProt O60573), the log2 fold change is inactive: -0.009.

Consider EFCAB14 (UniProt O75071), for which the log2 fold change is inactive: -0.119.

For EGLN1 (UniProt Q9GZT9), the log2 fold change was inactive: -0.02.

ENTPD6 (UniProt O75354): the log2 fold change is inactive: 0.068.

In the case of EFEMP1 (UniProt Q12805), the log2 fold change is inactive: -0.056.

For ELOVL7 (UniProt A1L3X0), the log2 fold change is inactive: -0.162.

In the case of EFL1 (UniProt Q7Z2Z2), the log2 fold change is inactive: 0.043.

EFCAB2 (UniProt Q5VUJ9): the log2 fold change is inactive: -0.007.

On to EPB41, A0A2R8Y6D0, for which the log2 fold change is inactive: -0.137.

EIF2AK3 (UniProt Q9NZJ5): the log2 fold change was inactive: -0.016.

For EML5 isoform 5 (UniProt Q05BV3), the log2 fold change was inactive: -0.087.

As for ENPP3 (UniProt O14638), the log2 fold change is inactive: -0.047.

EIF3J (UniProt O75822): the log2 fold change is inactive: 0.021.

Take ELOVL5 isoform 2 (UniProt Q9NYP7): the log2 fold change was inactive: -0.068.

Take EIF4H isoform 2 (UniProt Q15056): the log2 fold change was inactive: 0.411.

As for EIF4ENIF1 isoform 3 (UniProt Q9NRA8), the log2 fold change was inactive: -0.017.

In the case of ELF1 (UniProt P32519), the log2 fold change is inactive: -0.091.

Compound in the next assay: C1CCN(C1)C(=O)NC2=CC=CC(=C2)NC3=NC=C(C(=N3)NCCC4=CN=CN4)Br
The assay is described as above. The method in brief: as §1
On to EIF4G3 isoform 3 (UniProt O43432), for which the log2 fold change is inactive: -0.049.

As for EIF3J isoform 2 (UniProt O75822), the log2 fold change was inactive: 0.143.

Take EEF1AKNMT (UniProt Q8N6R0): the log2 fold change is inactive: 0.023.

Take EIF2AK1 (UniProt Q9BQI3): the log2 fold change is inactive: -0.007.

Consider EIF2B4 (UniProt Q9UI10), for which the log2 fold change is inactive: 0.026.

For the target EIF3G (UniProt K7ER90), the log2 fold change is inactive: 0.016.

For the target EED, A0A5F9ZI63, the log2 fold change is inactive: 0.032.

Take EOGT (UniProt Q5NDL2): the log2 fold change is inactive: 0.004.

On to EIF2AK2 (UniProt P19525), for which the log2 fold change is inactive: 0.102.

For ELOVL1 (UniProt Q9BW60), the log2 fold change is inactive: -0.124.

For EIF2S3 (UniProt P41091), the log2 fold change was inactive: -0.023.

In the case of EGR1 (UniProt P18146), the log2 fold change was inactive: 0.118.

For the target ELL (UniProt P55199), the log2 fold change is inactive: -0.223.

With EEF1G isoform 2 (UniProt P26641), the log2 fold change was inactive: 0.001.

For the target EIF4E2 (UniProt O60573), the log2 fold change is inactive: -0.032.

Take EFCAB14 (UniProt O75071): the log2 fold change is inactive: 0.044.

On to EGLN1 (UniProt Q9GZT9), for which the log2 fold change was inactive: 0.01.

ENTPD6 (UniProt O75354): the log2 fold change is inactive: 0.068.

EFEMP1 (UniProt Q12805): the log2 fold change is inactive: 0.11.

On to ELOVL7 (UniProt A1L3X0), for which the log2 fold change is inactive: 0.078.

Take EFL1 (UniProt Q7Z2Z2): the log2 fold change was inactive: 0.027.

As to EPB41, A0A2R8Y6D0, the log2 fold change is inactive: -0.158.

Turning to EIF2AK3 (UniProt Q9NZJ5), the log2 fold change is inactive: 0.148.

For the target EML5 isoform 5 (UniProt Q05BV3), the log2 fold change was inactive: 0.019.

As to EIF3J (UniProt O75822), the log2 fold change was inactive: 0.009.

Consider ELOVL5 isoform 2 (UniProt Q9NYP7), for which the log2 fold change was inactive: 0.031.

For the target EIF4ENIF1 isoform 3 (UniProt Q9NRA8), the log2 fold change was inactive: -0.035.

As for ELF1 (UniProt P32519), the log2 fold change was inactive: 0.013.

Compound in another assay: C1CN(CCC1(CC2=CC=C(C=C2)Cl)N)C3=NC=NC4=C3C=CN4
The assay is described as above. The method in brief: as §1
As to EIF4G3 isoform 3 (UniProt O43432), the log2 fold change is inactive: -0.125.

In the case of EIF3J isoform 2 (UniProt O75822), the log2 fold change is inactive: 0.

For EEF1AKNMT (UniProt Q8N6R0), the log2 fold change was inactive: -0.061.

As for EIF2AK1 (UniProt Q9BQI3), the log2 fold change was inactive: 0.012.

With EIF2B4 (UniProt Q9UI10), the log2 fold change is inactive: -0.188.

Regarding EIF3G (UniProt K7ER90), the log2 fold change is inactive: 0.015.

Regarding EED, A0A5F9ZI63, the log2 fold change was inactive: 0.012.

With EOGT (UniProt Q5NDL2), the log2 fold change is inactive: 0.04.

With EIF2AK2 (UniProt P19525), the log2 fold change is inactive: -0.211.

As to ELOVL1 (UniProt Q9BW60), the log2 fold change is inactive: 0.014.

As for EIF2S3 (UniProt P41091), the log2 fold change is inactive: -0.06.

In the case of EGR1 (UniProt P18146), the log2 fold change was inactive: -0.121.

For the target ELL (UniProt P55199), the log2 fold change was inactive: -0.075.

Regarding EEF1G isoform 2 (UniProt P26641), the log2 fold change was inactive: -0.031.

With EIF4E2 (UniProt O60573), the log2 fold change was inactive: -0.008.

Take EFCAB14 (UniProt O75071): the log2 fold change is inactive: -0.032.

Turning to EGLN1 (UniProt Q9GZT9), the log2 fold change was inactive: -0.003.

For ENTPD6 (UniProt O75354), the log2 fold change is inactive: 0.017.

Turning to EFEMP1 (UniProt Q12805), the log2 fold change was inactive: -0.03.

On to ELOVL7 (UniProt A1L3X0), for which the log2 fold change was inactive: 0.065.

Turning to EFL1 (UniProt Q7Z2Z2), the log2 fold change was inactive: 0.013.

As for EPB41, A0A2R8Y6D0, the log2 fold change is inactive: 0.106.

For the target EIF2AK3 (UniProt Q9NZJ5), the log2 fold change was inactive: 0.075.

For EML5 isoform 5 (UniProt Q05BV3), the log2 fold change is inactive: -0.008.

Turning to EIF3J (UniProt O75822), the log2 fold change was inactive: -0.01.

For ELOVL5 isoform 2 (UniProt Q9NYP7), the log2 fold change was inactive: 0.008.

EIF4ENIF1 isoform 3 (UniProt Q9NRA8): the log2 fold change is inactive: 0.009.

For the target ELF1 (UniProt P32519), the log2 fold change is inactive: -0.092.
